Data as given in PubChem BioAssay AID1259327 (Drosophila RNAi Screening Center, 2017)

Screen: 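Knock-downs altering cellular ATP with no metal added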
Cells: Drosophila S2R+ cells
Reagents: long dsRNA against Drosophila genes
Duration: 5 days (water added on day 4, read one day later)
Treatment: water added as vehicle, no metal, one day before read-out
Read-out: 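Luciferase ATP signal per well, normalised to plate mean, duplicate average converted to z-score across plates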
Reading the numbers: ATP z-score: higher = more total ATP than typical wells; ATP luminescence: higher = more total ATP
Hit rule: 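a hit is any knock-down whose absolute ATP z-score is greater than 1.5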
Calls: active = hit: ATP up or down; inactive = no clear ATP change
Shown is an unselected part of about 3,100 reagents tested. 378 of them (12%) count as active. 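Hits include both directions; z-score sign shows ATP rise or fall; raw luminescence values are not plate-normalised.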 Unmarked entries are inactive. Names joined by + are all predicted targets of the reagent. The record does not give: the amount of reagent.

After knock-down of CG6149 (GeneID 39277) [DRSC10593] the results were ATP z-score, duplicate mean -0.253; ATP luminescence, replicate 1 (RLU) = 9.13e5; ATP luminescence, replicate 2 (RLU) = 8.15e5.
CG13796 (GeneID 34051) [DRSC24686] showed ATP z-score, duplicate mean 0.405; ATP luminescence, replicate 1 (RLU) = 8.09e5; ATP luminescence, replicate 2 (RLU) = 9.06e5.
For Myd88 (GeneID 35956) [DRSC06815] the deposit lists ATP z-score, duplicate mean 0.767; ATP luminescence, replicate 1 (RLU) = 8.83e5; ATP luminescence, replicate 2 (RLU) = 7.41e5.
For Myd88 (GeneID 35956) [DRSC39905], the entry reads ATP z-score, duplicate mean 1.95 (active); ATP luminescence, replicate 1 (RLU) = 5.99e5; ATP luminescence, replicate 2 (RLU) = 9.21e5.
For GluRIIB (GeneID 33789) [DRSC03335], the entry reads ATP z-score, duplicate mean -0.652; ATP luminescence, replicate 1 (RLU) = 6.74e5; ATP luminescence, replicate 2 (RLU) = 6.40e5.
After knock-down of GluRIIB (GeneID 33789) [DRSC39568], the record shows ATP z-score, duplicate mean 2.3 (active); ATP luminescence, replicate 1 (RLU) = 6.46e5; ATP luminescence, replicate 2 (RLU) = 5.96e5.
CG30265 (GeneID 37622) [DRSC21592] gave ATP z-score, duplicate mean -2.25 (active); ATP luminescence, replicate 1 (RLU) = 3.89e5; ATP luminescence, replicate 2 (RLU) = 3.88e5.
sina + Rh4 [DRSC11396] showed ATP z-score, duplicate mean -0.311; ATP luminescence, replicate 1 (RLU) = 7.02e5; ATP luminescence, replicate 2 (RLU) = 6.93e5.
With knock-down of Recs1 (GeneID 41724) [DRSC16545], the record shows ATP z-score, duplicate mean -0.347; ATP luminescence, replicate 1 (RLU) = 2.63e5; ATP luminescence, replicate 2 (RLU) = 7.76e5.
With knock-down of Recs1 (GeneID 41724) [DRSC39698] the results were ATP z-score, duplicate mean 1.17; ATP luminescence, replicate 1 (RLU) = 6.35e5; ATP luminescence, replicate 2 (RLU) = 4.52e5.
Tmtc3 (GeneID 37401) [DRSC04444] scored ATP z-score, duplicate mean -0.817; ATP luminescence, replicate 1 (RLU) = 6.61e5; ATP luminescence, replicate 2 (RLU) = 6.26e5.
With knock-down of CG31668 (GeneID 33395) [DRSC22584] the results were ATP z-score, duplicate mean 1.47; ATP luminescence, replicate 1 (RLU) = 6.79e5; ATP luminescence, replicate 2 (RLU) = 7.29e5.
After knock-down of CG31668 (GeneID 33395) [DRSC39502], the record shows ATP z-score, duplicate mean 0.986; ATP luminescence, replicate 1 (RLU) = 4.66e5; ATP luminescence, replicate 2 (RLU) = 5.67e5.
After knock-down of CG4465 (GeneID 42374) [DRSC15584], the record shows ATP z-score, duplicate mean 0.221; ATP luminescence, replicate 1 (RLU) = 3.02e5; ATP luminescence, replicate 2 (RLU) = 8.03e5.
CG4465 (GeneID 42374) [DRSC39564] gave ATP z-score, duplicate mean 1.41; ATP luminescence, replicate 1 (RLU) = 5.15e5; ATP luminescence, replicate 2 (RLU) = 6.10e5.
For fend (GeneID 31843) [DRSC17601] the deposit lists ATP z-score, duplicate mean -0.721; ATP luminescence, replicate 1 (RLU) = 5.68e5; ATP luminescence, replicate 2 (RLU) = 5.41e5.
Depletion of fend (GeneID 31843) [DRSC17867] gave: ATP z-score, duplicate mean 0.62; ATP luminescence, replicate 1 (RLU) = 6.60e5; ATP luminescence, replicate 2 (RLU) = 6.91e5.
For smog (GeneID 33690) [DRSC00334], the entry reads ATP z-score, duplicate mean -0.422; ATP luminescence, replicate 1 (RLU) = 6.60e5; ATP luminescence, replicate 2 (RLU) = 7.02e5.
smog (GeneID 33690) [DRSC23053] showed ATP z-score, duplicate mean -0.167; ATP luminescence, replicate 1 (RLU) = 5.74e5; ATP luminescence, replicate 2 (RLU) = 5.57e5.
Against smog (GeneID 33690) [DRSC27223], the values are ATP z-score, duplicate mean -0.997; ATP luminescence, replicate 1 (RLU) = 9.54e5; ATP luminescence, replicate 2 (RLU) = 9.38e5.
CG31904 + CG13796 [DRSC22161] gave ATP z-score, duplicate mean -0.352; ATP luminescence, replicate 1 (RLU) = 5.43e5; ATP luminescence, replicate 2 (RLU) = 5.78e5.
Against Oatp26F (GeneID 33927) [DRSC02149], the values are ATP z-score, duplicate mean 0.293; ATP luminescence, replicate 1 (RLU) = 7.91e5; ATP luminescence, replicate 2 (RLU) = 7.24e5.
Silencing of Oatp26F (GeneID 33927) [DRSC02695] resulted in: ATP z-score, duplicate mean -1.19; ATP luminescence, replicate 1 (RLU) = 5.04e5; ATP luminescence, replicate 2 (RLU) = 5.20e5.
For Oatp26F (GeneID 33927) [DRSC27346] the deposit lists ATP z-score, duplicate mean -0.0517; ATP luminescence, replicate 1 (RLU) = 6.83e5; ATP luminescence, replicate 2 (RLU) = 7.63e5.

Active calls (from the list above):
Myd88 (GeneID 35956) [DRSC39905] → ATP z-score, duplicate mean = 1.95 (active); ATP luminescence, replicate 1 (RLU) = 5.99e5; ATP luminescence, replicate 2 (RLU) = 9.21e5
GluRIIB (GeneID 33789) [DRSC39568] → ATP z-score, duplicate mean = 2.3 (active); ATP luminescence, replicate 1 (RLU) = 6.46e5; ATP luminescence, replicate 2 (RLU) = 5.96e5
CG30265 (GeneID 37622) [DRSC21592] → ATP z-score, duplicate mean = -2.25 (active); ATP luminescence, replicate 1 (RLU) = 3.89e5; ATP luminescence, replicate 2 (RLU) = 3.88e5
